Reference: patent publication US20140037547A1 (UNIVERSITY OF VERMONT AND STATE AGRICULTURAL COLLEGE, published 2014)
No constants are given. Whether binding was seen depends on the method and setting. Some entries that bind do so weakly or less than the wild type.

Target: T1, wild-type PKG Iα (cGMP-dependent protein kinase type Iα, full length) (UniProt P00516)
T1 sequence (looked up): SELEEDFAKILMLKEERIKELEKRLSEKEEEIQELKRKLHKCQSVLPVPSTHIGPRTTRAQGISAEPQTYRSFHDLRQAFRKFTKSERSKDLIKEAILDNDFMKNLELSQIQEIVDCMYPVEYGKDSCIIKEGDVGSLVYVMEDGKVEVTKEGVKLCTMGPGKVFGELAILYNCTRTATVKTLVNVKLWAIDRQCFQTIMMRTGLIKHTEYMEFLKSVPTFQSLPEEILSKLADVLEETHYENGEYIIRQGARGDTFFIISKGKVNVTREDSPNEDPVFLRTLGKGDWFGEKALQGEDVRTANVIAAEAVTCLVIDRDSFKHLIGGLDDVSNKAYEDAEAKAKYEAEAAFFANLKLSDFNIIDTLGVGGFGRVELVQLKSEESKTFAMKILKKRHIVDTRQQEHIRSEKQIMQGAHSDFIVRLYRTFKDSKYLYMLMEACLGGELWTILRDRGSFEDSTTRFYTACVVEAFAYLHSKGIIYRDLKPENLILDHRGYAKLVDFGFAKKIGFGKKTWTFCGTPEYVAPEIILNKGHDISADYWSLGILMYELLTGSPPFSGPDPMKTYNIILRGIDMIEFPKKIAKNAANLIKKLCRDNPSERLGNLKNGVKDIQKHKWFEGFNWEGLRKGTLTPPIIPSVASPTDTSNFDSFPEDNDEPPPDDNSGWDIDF
Test: surface plasmon resonance

binding: binds
B1: SW:329-358 (peptide)
peptide: DVSNKAYEDAEAKAKYEAEAAFFANLKLSD
